US20230037911A1
Results are given in words; binding and its absence hold for the method and conditions named. Some binding calls cover weakened binding; strength is not graded here. For part of these data: Tags and fused reporters may be left off the sequences shown.

B1: Bivalent 2A3 antibody (2A3-Fc), 2A3 VHH with human IgG1 CH2 and CH3 domains (Fc fusion, not shown: a dimerising Fc or GST)
chain: QVQLVESGGGVVQPGRSLRLSCAASGGSFSSYPMGWFRQAPGKERESVAAISSDMRFTYYADSVKGRFTISRDNSKNTLYLQMNSLRAEDTAVYYCAARDSGVGYYSRAQWYDYWGQGTLVTVSS
B2: 10H5 VHH (VHH)
VHH: GGGLVQAGGSLRLACTASDPPFANYETTFKSMAMGWVRHIPGKERELVAATNYNGGRTWYSNSAKARSTISRDNAKNTVYLQMSSLKPEDTAVYYCAAKATEGTTFPSRTYEFWGQGIQVTVSS
B3: 2A3 VHH (VHH)
VHH: QVQLVESGGGVVQPGRSLRLSCAASGGSFSSYPMGWFRQAPGKERESVAAISSDMRFTYYADSVKGRFTISRDNSKNTLYLQMNSLRAEDTAVYYCAARDSGVGYYSRAQWYDYWGQGTLVTVSS
B4: 1A8 VHH (VHH)
VHH: QVQLVESGGGVVQPGRSLRLSCAASGPSFSSYPMGWFRQAPGKERESVAAISSRGRFTYYADSVKGRFTISRDNSKNTLYLQMNSLRAEDTAVYYCAARDSGSGYYSRAQWYDYWGQGTLVTVSS
B5: 1D11 VHH (VHH)
VHH: QVQLVESGGGVVQPGRSLRLSCAASGPSFSSSPMGWFRQAPGKERESVAAISSMGRFTYYADSVKGRFTISRDNSKNTLYLQMNSLRAEDTAVYYCAARDSGSGYYSRAQWYDYWGQGTLVTVSS
B6: 5E8 VHH (VHH)
VHH: QVQLVESGGGVVQPGRSLRLSCAASGPSFSSYPMGWFRQAPGKERESVAAQSSDGRFTYYADSVKGRFTISRDNSKNTLYLQMNSLRAEDTAVYYCAARDSGSGYYSRAQWYDYWGQGTLVTVSS
B7: 2A5 VHH (VHH)
VHH: QVQLVESGGGVVQPGRSLRLSCAASGPSFSSYPMGWFRQAPGKERESVAAISSVGRFTYYADSVKGRFTISRDNSKNTLYLQMNSLRAEDTAVYYCAARDSGSGYYSRWQWYDYWGQGTLVTVSS
B8: 5G10 VHH (VHH)
VHH: QVQLVESGGGVVQPGRSLRLSCAASGPRFSSYPMGWFRQAPGKERESVAAISSDGRFTYYADSVKGRFTISRDNSKNTLYLQMNSLRAEDTAVYYCAARDSGSGYYSRAQWYDGWGQGTLVTVSS
B9: 2A6 VHH (VHH)
VHH: QVQLVESGGGVVQPGRSLRLSCAASGPSFSLYPMGWFRQAPGKERESVAAISSDRRFTYYADSVKGRFTISRDNSKNTLYLQMNSLRAEDTAVYYCAARDSGSGYYSRAQWYDYWGQGTLVTVSS
B10: 1G1-1C12 VHH (VHH)
VHH: QVQLVESGGGVVQPGRSLRLSCAASGPSFSSYPMGWFRQAPGKERESVAAISSDLRFTYYADSVKGRFTISRDNSKNTLYLQMNSLRAEDTAVYYCAARDSGSGYYSRKQWYDYWGQGTLVTVSS
B11: 5B5 VHH (VHH)
VHH: QVQLVESGGGVVQPGRSLRLSCAASGPSFSSYPMGWFRQAPGKERESVAAISSDTRFTYYADSVKGRFTISRDNSKNTLYLQMNSLRAEDTAVYYCAARDSGSGYYSRAQWYDRWGQGTLVTVSS
B12: 6F12 VHH (VHH)
VHH: QVQLVESGGGVVQPGRSLRLSCAASGPSFTSYPMGWFRQAPGKERESVAAISSDGRFKYYADSVKGRFTISRDNSKNTLYLQMNSLRAEDTAVYYCAAEDSGSGYYSRAQWYDYWGQGTLVTVSS
B13: 1C7 VHH (VHH)
VHH: QVQLVESGGGVVQPGRSLRLSCAASGPSFSSYPMGWFRQAPGKERESVAAISSRGRFTYYADSVKGRFTISRDNSKNTLYLQMNSLRAEDTAVYYCAARGSGSGYYSRAQWYDYWGQGTLVTVSS
B14: 6E9 VHH (VHH)
VHH: QVQLVESGGGVVQPGRSLRLSCAASGPSRSSYPMGWFRQAPGKERESVAAISSDGKFTYYADSVKGRFTISRDNSKNTLYLQMNSLRAEDTAVYYCAARDSGSGYYSRANWYDYWGQGTLVTVSS
B15: 1A10 VHH (VHH)
VHH: QVQLVESGGGVVQPGRSLRLSCAASGNSFSSYPMGWFRQAPGKERESVAAISSDGRFSYYADSVKGRFTISRDNSKNTLYLQMNSLRAEDTAVYYCACRDSGSGYYSRAQWYDYWGQGTLVTVSS
B16: 6B11 VHH (VHH)
VHH: QVQLVESGGGVVQPGRSLRLSCAASGPSFPSYPMGWFRQAPGKERESVAAISSRGRFTYYADSVKGRFTISRDNSKNTLYLQMNSLRAEDTAVYYCAARDSGSGYYSRLQWYDYWGQGTLVTVSS
B17: 6D8 VHH (VHH)
VHH: QVQLVESGGGVVQPGRSLRLSCAASGPSFSSKPMGWFRQAPGKERESVAARSSDGRFTYYADSVKGRFTISRDNSKNTLYLQMNSLRAEDTAVYYCAARDSGSGRYSRAQWYDYWGQGTLVTVSS
B18: 6D12 VHH (VHH)
VHH: QVQLVESGGGVVQPGRSLRLSCAASGPSFSTYPMGWFRQAPGKERESVAAISSDGVFTYYADSVKGRFTISRDNSKNTLYLQMNSLRAEDTAVYYCAARDSGSGYYSREQWYDYWGQGTLVTVSS
B19: 2C5 VHH (VHH)
VHH: QVQLVESGGGVVQPGRSLRLSCAASGPSFSTYPMGWFRQAPGKERESVAAISSQGRFTYYADSVKGRFTISRDNSKNTLYLQMNSLRAEDTAVYYCAARDSGSGYYSRAQWYDYWGQGTLVTVSS
B20: 7F6 VHH (VHH)
VHH: QVQLVESGGGVVQPGRSLRLSCAASGPMFSSYPMGWFRQAPGKERESVAAISSDPRFTYYADSVKGRFTISRDNSKNTLYLQMNSLRAEDTAVYYCAARDSGSGYYSRAQWYDYWGQGTLVTVSS
B21: 2D5 VHH (VHH)
VHH: QVQLVESGGGVVQPGRSLRLSCAASGPSFSSSPMGWFRQAPGKERESVAAISWDGRFTYYADSVKGRFTISRDNSKNTLYLQMNSLRAEDTAVYYCAARDSGSGYYSRAQWYVYWGQGTLVTVSS
B22: 7B11 VHH (VHH)
VHH: QVQLVESGGGVVQPGRSLRLSCAASGPSFLIYPMGWFRQAPGKERESVAAISSDGRFWYYADSVKGRFTISRDNSKNTLYLQMNSLRAEDTAVYYCAARDSGSGYYSRVQWYDYWGQGTLVTVSS

Biological target: recombinant cynomolgus TIGIT (cyno-TIGIT ECD) (cynomolgus monkey)
Test: ELISA on recombinant cyno-TIGIT

binding, binds:
B1

Biological target: recombinant cynomolgus TIGIT (cyno-TIGIT ECD) (cynomolgus monkey)
Test: ELISA, recombinant cyno-TIGIT

binding, binds:
B1

Biological target: T1, recombinant human TIGIT extra cellular domain (ECD) protein (human) (UniProt Q495A1)
T1 sequence: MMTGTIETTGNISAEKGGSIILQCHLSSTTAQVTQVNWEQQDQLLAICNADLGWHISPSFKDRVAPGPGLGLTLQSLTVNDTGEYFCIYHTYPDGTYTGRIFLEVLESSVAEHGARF
Test: ELISA, VHH in supernatant on h-TIGIT ECD coated plates

binding, binds:
B2

Biological target: recombinant cynomolgus TIGIT (cyno-TIGIT ECD) (cynomolgus monkey)
Test: ELISA, VHH in supernatant

binding, binds:
B3, B4, B5, B6, B7, B8, B9, B10, B11, B12, B13, B14, B15, B16, B17, B18, B19, B20, B21, B22

Biological target: recombinant cynomolgus TIGIT (cyno-TIGIT ECD) (cynomolgus monkey)
Test: ELISA

binding, binds:
B1
